According to US9187790B2, “Saccharification of lignocellulosic biomass” (priority 2012, dated 2015):
Like-named read-outs stand apart in the source and are kept apart here.

What was measured:
Format in all cases: physicochemical
[1] = Separation of LiBr and sugars with ion exclusion chromatography; conditions: LiBr-sugar solution, DOWEX 1×8-400 Br− form, water eluent, FIG. 4
[2] = Extraction of LiBr from biomass hydrolysate with n-butanol/hexane
[3] = Precipitation of sugars with anti-solvent (methanol then acetone); conditions: for amount in the precipitated solid / share of the loaded amount in the precipitated solid: 320 mg glucose, 50 mg LiBr, 50 μL water in 1 mL methanol at 80° C., added into 10 mL acetone; for amount in the precipitate: sugar syrup from spruce hydrolysis (˜280 mg glucose, 50 mg LiBr); for amount in the precipitate / share of the syrup's amount in the precipitate: methanol then acetone; for share of the syrup's amount in the precipitate: sugar syrup from spruce hydrolysis
[4] = spruce hydrolysate (4 g spruce), butanol/hexane 7:3, 20 extractions

| Structure (SMILES) | separation from sugars (in words) [1] | content of the syrup-like sugar mixture after the extractions [2] [g] | amount in the precipitated solid [3] [mg] | share of the loaded amount in the precipitated solid [3] [%] | amount in the precipitate [3] | share of the syrup's amount in the precipitate [3] [%] | content of the syrup-like sugar mixture after the extractions [2, 4] [g] |
| --- | --- | --- | --- | --- | --- | --- | --- |
| [Br-].[Li+] [LiBr, Lithium bromide] | separated very well | 0.260 | 4.5 | 9 | ~4 mg | 8 | – |
| O=C[C@H](O)[C@@H](O)[C@H](O)[C@H](O)CO [glucose] | – | – | 240 | 75 | Approximately 220 mg | 79 | 1.4 |
| O=C[C@H](O)[C@@H](O)[C@H](O)CO [xylose] | – | – | – | – | – | – | 0.075 |
